Laboratory results taken from PMC12866847.
For at least one entry, the source does not settle the construct or the ends of the probe. For part of these data: Negatives hold for the conditions tested.

Assays:
[1] = test system: MBP-ZmWRKY44-FLAG (Zea mays (B73)); test: EMSA; conditions: EMSA: 25 °C, 20 min, Beyotime GS009 chemiluminescent EMSA kit, native PAGE, salt and pH not stated, recombinant protein, protein details: His-MBP N-term, label: biotin
[2] = test system: MBP-ZmWRKY44-FLAG (Zea mays (B73)); test: competition with a labelled probe; conditions: unlabelled intact probe disrupts binding to N1, EMSA: 25 °C, 20 min, Beyotime GS009 chemiluminescent EMSA kit, native PAGE, salt and pH not stated, recombinant protein, protein details: His-MBP N-term

| Sequence | binding result [1] | binding result [2] |
| --- | --- | --- |
| TCTCCTCGGCGGCGGCTTAAAAAAGCTCCTTTTCCTGGCTCC (double strand) [AAAAAA-mBiotin (mutated W-box probe)] | no binding |  |
| TCTCCTCGGCGGCGGCTTTTGACGGCTCCTTTTCCTGGCTCC (double strand) [CGTCAA-Biotin (W-box probe, ZmRRS1 promoter)] | binds |  |
| TCTCCTCGGCGGCGGCTTTTGACGGCTCCTTTTCCTGGCTCC (double strand) [CGTCAA-Comp (unlabelled W-box competitor)] |  | binds |
